PubChem BioAssay AID493246 – Drosophila RNAi Screening Center – 2011

Screen: 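Identify essential fly genes by loss of cell viability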 (primary screen)
Cell system: Drosophila Kc and S2R+ cells
Reagent: long dsRNA against Drosophila genes
Measurement: 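Cell number per well after knock-down, printed as raw plate values; calls were based on per-plate z-scores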
Reading the numbers: Kc cell number and S2R+ cell number: higher = more cells remaining
Call rule: 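Counted as a hit if cell number falls by a z-score of at least 3 within its plate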
The screen tested about 21,000 reagents; shown is an unselected part of those that have a named target and a result. Of all reagents, 429 (2%) are marked active. 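Values are raw and not normalised between plates; calls rest on per-plate z-scores that were not deposited.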 Reagents against one gene are numbered here. Names joined by + are all predicted targets of the reagent. The record does not give: the amount of reagent, the time to read-out.

| target | reagent no. | Kc cell number, rep 1 | Kc cell number, rep 2 | S2R+ cell number, rep 1 | S2R+ cell number, rep 2 | Call |
| --- | --- | --- | --- | --- | --- | --- |
| CG15631 | 1 | 1.49e6 | 1.41e6 | 1.08e6 | 1.26e6 | inactive |
| Ptpmeg | 1 | 1.40e6 | 1.46e6 | 1.24e6 | 1.33e6 | inactive |
| alpha-Cat | 1 | 1.59e6 | 1.47e6 | 1.14e6 | 1.20e6 | inactive |
| CG13121 (retired record) | 1 | 1.63e6 | 1.66e6 | 1.28e6 | 1.47e6 | inactive |
| mkg-p + Tpt | 1 | 1.26e6 | 1.46e6 | 1.21e6 | 1.08e6 | inactive |
| Cpr64Aa | 1 | 1.59e6 | 1.46e6 | 1.08e6 | 1.31e6 | inactive |
| Polr1B | 1 | 1.31e6 | 1.33e6 | 9.12e5 | 9.32e5 | inactive |
| CG18641 | 1 | 1.79e6 | 1.80e6 | 1.13e6 | 1.20e6 | inactive |
| CG2004 | 1 | 1.67e6 | 1.70e6 | 1.13e6 | 1.20e6 | inactive |
| CG13064 | 1 | 1.39e6 | 1.54e6 | 1.34e6 | 1.44e6 | inactive |
| Mpv17 | 1 | 1.51e6 | 1.55e6 | 1.10e6 | 1.24e6 | inactive |
| Mtl | 1 | 1.57e6 | 1.54e6 | 1.01e6 | 1.18e6 | inactive |
| CG14500 | 1 | 1.52e6 | 1.62e6 | 1.21e6 | 1.27e6 | inactive |
| CG6607 | 1 | 1.43e6 | 1.70e6 | 1.10e6 | 1.20e6 | inactive |
| wash | 1 | 1.54e6 | 1.56e6 | 1.19e6 | 1.26e6 | inactive |
| CG12395 | 1 | 1.50e6 | 1.54e6 | 1.16e6 | 1.22e6 | inactive |
| Pi3K59F | 1 | 1.36e6 | 1.39e6 | 1.17e6 | 1.17e6 | inactive |
| CG10959 | 1 | 5.58e5 | – | 9.04e5 | – | inactive |
| Obp50d | 1 | 1.53e6 | 1.53e6 | 1.09e6 | 1.20e6 | inactive |
| CG5890 | 1 | 1.41e6 | 1.48e6 | 9.59e5 | 1.11e6 | inactive |
| CG31675 | 1 | 5.57e5 | – | 9.05e5 | – | inactive |
| stwl | 1 | 1.18e6 | 1.34e6 | 1.01e6 | 1.07e6 | inactive |
| CG10650 | 1 | 1.28e6 | 1.36e6 | 1.22e6 | 1.26e6 | inactive |
| Gprk1 | 1 | 1.35e6 | 1.44e6 | 1.11e6 | 1.06e6 | inactive |
| Gprk1 | 2 | 1.46e6 | 1.94e6 | 1.26e6 | 1.28e6 | inactive |
| CG14238 | 1 | 1.46e6 | 1.49e6 | 9.75e5 | 1.13e6 | inactive |
| side-VII | 1 | 1.52e6 | 1.59e6 | 1.26e6 | 1.37e6 | inactive |
| Pk34A | 1 | 1.68e6 | 1.67e6 | 1.29e6 | 1.51e6 | inactive |
| CG30385 | 1 | 1.66e6 | 1.69e6 | 1.33e6 | 1.54e6 | inactive |
| Eip74EF | 1 | 2.94e5 | 4.30e5 | 4.28e5 | 5.08e5 | active |
| Eip74EF | 2 | 1.40e6 | 1.45e6 | 1.08e6 | 1.16e6 | inactive |
| CG9263 | 1 | 1.53e6 | 1.60e6 | 1.26e6 | 1.37e6 | inactive |
| CG15550 | 1 | 1.46e6 | 1.47e6 | 1.03e6 | 1.17e6 | inactive |
| CG3511 | 1 | 1.51e6 | 1.63e6 | 1.13e6 | 1.12e6 | inactive |
| CG15728 | 1 | 1.63e6 | 1.57e6 | 1.07e6 | 1.18e6 | inactive |
| Naglu | 1 | 1.31e6 | 1.38e6 | 5.21e5 | 6.36e5 | inactive |
| Trissin | 1 | 1.43e6 | 1.45e6 | 1.13e6 | 1.26e6 | inactive |
| Ugt317A1 | 1 | 1.67e6 | 1.78e6 | 1.24e6 | 1.36e6 | inactive |
| CG12016 + Dpm2 | 1 | 1.21e6 | 1.32e6 | 1.11e6 | 1.05e6 | inactive |
| Nse4 | 1 | 1.89e6 | 1.99e6 | 1.27e6 | 1.51e6 | inactive |
| CG14957 | 1 | 1.59e6 | 1.59e6 | 1.12e6 | 1.29e6 | inactive |
| CG7781 | 1 | 1.76e6 | 1.81e6 | 1.22e6 | 1.36e6 | inactive |
| CG8010 | 1 | 1.61e6 | 1.63e6 | 1.12e6 | 1.24e6 | inactive |
| CG11382 | 1 | 1.51e6 | 1.55e6 | 1.08e6 | 1.24e6 | inactive |
| krimp | 1 | 1.34e6 | 1.36e6 | 1.20e6 | 1.22e6 | inactive |
| kek6 | 1 | 1.52e6 | 1.53e6 | 9.61e5 | 1.10e6 | inactive |
| AstA-R1 | 1 | 1.31e6 | 1.52e6 | 1.11e6 | 1.14e6 | inactive |
| AstA-R1 | 2 | 1.60e6 | 1.57e6 | 1.03e6 | 1.19e6 | inactive |
| Sem1 | 1 | 1.37e6 | 1.35e6 | 7.71e5 | 9.42e5 | inactive |
| CG13858 (retired record) | 1 | 1.30e6 | 1.21e6 | 1.12e6 | 1.27e6 | inactive |
| CG13858 (retired record) | 2 | 1.25e6 | 1.18e6 | 1.06e6 | 1.22e6 | inactive |
| CG13858 (retired record) | 3 | 1.22e6 | 1.20e6 | 1.12e6 | 1.19e6 | inactive |
| CG13858 (retired record) | 4 | 1.23e6 | 1.20e6 | 1.09e6 | 1.17e6 | inactive |
| Vtld + CG42529 | 1 | 1.38e6 | 1.45e6 | 1.29e6 | 1.32e6 | inactive |
| drl | 1 | 1.34e6 | 1.40e6 | 1.29e6 | 1.33e6 | inactive |
| CG7606 | 1 | 1.38e6 | 1.41e6 | 9.92e5 | 1.07e6 | inactive |
| CG7606 | 2 | 1.45e6 | 1.53e6 | 1.02e6 | 9.97e5 | inactive |
| CG16704 | 1 | 1.58e6 | 1.46e6 | 1.20e6 | 1.30e6 | inactive |
| CG18095 | 1 | 1.59e6 | 1.60e6 | 1.27e6 | 1.46e6 | inactive |
| CG5781 | 1 | 1.64e6 | 1.66e6 | 1.34e6 | 1.44e6 | inactive |
| skl | 1 | 1.22e6 | 1.32e6 | 1.31e6 | 1.43e6 | inactive |
| CG8509 | 1 | 5.87e5 | – | 7.77e5 | – | inactive |
| Hexo2 | 1 | 1.62e6 | 1.57e6 | 1.14e6 | 1.27e6 | inactive |
| bs | 1 | 5.81e5 | 5.71e5 | 4.59e5 | 5.44e5 | active |
| CG9813 | 1 | 1.68e6 | 1.73e6 | 1.31e6 | 1.46e6 | inactive |
| Rab9Db + Rab9D + Rab9Fa + 1 more | 1 | 1.42e6 | 1.78e6 | 1.11e6 | 1.19e6 | inactive |
| Sema1b | 1 | 1.40e6 | 1.42e6 | 1.10e6 | 1.18e6 | inactive |
| dor | 1 | 5.37e5 | – | 7.92e5 | – | inactive |
| Nepl21 | 1 | 5.63e5 | – | 8.47e5 | – | inactive |
| ND-PDSW | 1 | 1.25e6 | 1.29e6 | 7.63e5 | 7.95e5 | inactive |
| CCT2 | 1 | 4.90e5 | – | 8.47e5 | – | inactive |
| CG11345 | 1 | 1.66e6 | 1.72e6 | 1.20e6 | 1.27e6 | inactive |
| Ank2 | 1 | 1.67e6 | 1.73e6 | 1.18e6 | 1.32e6 | inactive |
| Ank2 | 2 | 1.39e6 | 1.26e6 | 1.25e6 | 1.30e6 | inactive |
| Ank2 | 3 | 1.34e6 | 1.35e6 | 1.21e6 | 1.21e6 | inactive |
| Ank2 | 4 | 1.28e6 | 1.36e6 | 1.13e6 | 1.22e6 | inactive |
